# Measurements reported in the supplement of paper PMC8728848.
# The list shows a part of the results.
# B1: HA-00510 (Pseudomonas aeruginosa), Q02V39_PSEAB (protein)
# chain: GVPIVNIATPNGAGLSNNHFRDYNVGANGLILNNATGKTQGTQLGGIILGNPNLKGQAAQVILNQVTGGNRSTLAGYTEVAGQSARVIVANPHGITCQGCGFINTPRATLTTGKPIMDGQRLERFQVDGGDIVVEGAELNVGNLEQFDLITRSAKLNAKLYAKNLNIVTGRNDVQADSLQATPRAADGSEKPQLAIDSSALGGMYAGAIRLVGTEQGVGVKLAGDMAASGGDIRIDASGKLSLAQASSQGDLKIAAQAVELNGKTYAGGSAEIRSAEELVNRQS
# Experiments:
# Assay in all cases: glycan array binding signal (z-score within array); higher = stronger binding
# Conditions in all cases: glycan notation: IUPAC condensed, linker removed
# [1] = target: Gal(b1-3)GlcNAc(b1-3)Gal(b1-4)GlcNAc(b1-2)Man(a1-3)[Gal(b1-3)GlcNAc(b1-3)Gal(b1-4)GlcNAc(b1-2)Man(a1-6)]Man(b1-4)GlcNAc(b1-4)GlcNAc
# In short: (§1)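 Arrays were curated from the Consortium for Functional Glycomics database, 3228 in total, and kept only where the protein sequence was available. Binding is expressed as a within-array Z-score. This score was averaged across arrays of the same protein sequence at different concentrations or buffers and across linkers, and negative values can be read as non-binding.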
# [2] = target: Gal(b1-3)GlcNAc(b1-3)Gal(b1-4)GlcNAc(b1-2)[Gal(b1-3)GlcNAc(b1-3)Gal(b1-4)GlcNAc(b1-6)]Man(a1-6)[Gal(b1-3)GlcNAc(b1-3)Gal(b1-4)GlcNAc(b1-2)Man(a1-3)]Man(b1-4)GlcNAc(b1-4)[Fuc(a1-6)]GlcNAc
# In short: as §1
# [3] = target: Gal(b1-3)GlcNAc(b1-3)Gal(b1-4)GlcNAc(b1-3)Gal(b1-4)GlcNAc(b1-2)[Gal(b1-3)GlcNAc(b1-3)Gal(b1-4)GlcNAc(b1-3)Gal(b1-4)GlcNAc(b1-6)]Man(a1-6)[Gal(b1-3)GlcNAc(b1-3)Gal(b1-4)GlcNAc(b1-3)Gal(b1-4)GlcNAc(b1-2)Man(a1-3)]Man(b1-4)GlcNAc(b1-4)[Fuc(a1-6)]GlcNAc
# In short: as §1
# [4] = target: Gal(b1-3)GlcNAc(b1-3)Gal(b1-4)GlcNAc(b1-6)[Gal(b1-3)GlcNAc(b1-3)]Gal(b1-4)Glc
# In short: as §1
# [5] = target: Gal(b1-3)GlcNAc(b1-3)Gal(b1-4)[Fuc(a1-3)]GlcNAc
# In short: as §1
# [6] = target: Gal(b1-3)GlcNAc(b1-3)Gal(b1-4)[Fuc(a1-3)]GlcNAc(b1-6)[Gal(b1-3)GlcNAc(b1-3)]Gal(b1-4)Glc
# In short: as §1
# [7] = target: Gal(b1-3)GlcNAc(b1-3)GalNAc
# In short: as §1
# [8] = target: Gal(b1-3)GlcNAc(b1-6)Gal(b1-4)GlcNAc
# In short: as §1
# [9] = target: Gal(b1-3)GlcNAc(b1-6)GalNAc
# In short: as §1
# [10] = target: Gal(b1-3)GlcNAc(b1-6)[Gal(b1-3)]GalNAc
# In short: as §1
# Gal(b1-3)GlcNAc6S = target: Gal(b1-3)GlcNAc6S
# In short: as §1
# [11] = target: Gal(b1-3)[Fuc(a1-4)]GlcNAc
# In short: as §1
# [12] = target: Gal(b1-3)[Fuc(a1-4)]GlcNAc(b1-2)Man
# In short: as §1
# [13] = target: Gal(b1-3)[Fuc(a1-4)]GlcNAc(b1-2)Man(a1-3)[Gal(b1-3)[Fuc(a1-4)]GlcNAc(b1-2)Man(a1-6)]Man(b1-4)GlcNAc(b1-4)[Fuc(a1-6)]GlcNAc
# In short: as §1
# [14] = target: Gal(b1-3)[Fuc(a1-4)]GlcNAc(b1-3)Gal(b1-3)[Fuc(a1-4)]GlcNAc
# In short: as §1
# [15] = target: Gal(b1-3)[Fuc(a1-4)]GlcNAc(b1-3)Gal(b1-4)[Fuc(a1-3)]GlcNAc
# In short: as §1
# [16] = target: Gal(b1-3)[Fuc(a1-4)]GlcNAc(b1-6)GalNAc
# In short: as §1
# [17] = target: Gal(b1-3)[GlcNAc(b1-6)]GalNAc
# In short: as §1
# [18] = target: Gal(b1-3)[Neu5Ac(a2-6)]GalNAc
# In short: as §1
# [19] = target: Gal(b1-3)[Neu5Ac(a2-6)]GlcNAc(b1-4)Gal(b1-4)Glc
# In short: as §1
# [20] = target: Gal(b1-3)[Neu5Ac(b2-6)]GalNAc
# In short: as §1
# Gal(b1-4)Gal = target: Gal(b1-4)Gal
# In short: as §1
# [21] = target: Gal(b1-4)GalNAc(a1-3)[Fuc(a1-2)]Gal(b1-4)GlcNAc
# In short: as §1
# [22] = target: Gal(b1-4)GalNAc(b1-3)[Fuc(a1-2)]Gal(b1-4)GlcNAc
# In short: as §1
# Gal(b1-4)Glc = target: Gal(b1-4)Glc
# In short: as §1
# Gal(b1-4)Glc6S = target: Gal(b1-4)Glc6S
# In short: as §1
# Gal(b1-4)GlcNAc = target: Gal(b1-4)GlcNAc
# In short: as §1
# [23] = target: Gal(b1-4)GlcNAc(a1-6)Gal(b1-4)GlcNAc
# In short: as §1
# Gal(b1-4)GlcNAc(b1-2)Man = target: Gal(b1-4)GlcNAc(b1-2)Man
# In short: as §1
# [24] = target: Gal(b1-4)GlcNAc(b1-2)Man(a1-3)Man(b1-4)GlcNAc(b1-4)GlcNAc
# In short: as §1
# [25] = target: Gal(b1-4)GlcNAc(b1-2)Man(a1-3)[Gal(b1-4)GlcNAc(b1-2)Man(a1-6)]Man(b1-4)GlcNAc(b1-4)GlcNAc
# In short: as §1
# [26] = target: Gal(b1-4)GlcNAc(b1-2)Man(a1-3)[Gal(b1-4)GlcNAc(b1-2)Man(a1-6)]Man(b1-4)GlcNAc(b1-4)[Fuc(a1-6)]GlcNAc
# In short: as §1
# [27] = target: Gal(b1-4)GlcNAc(b1-2)Man(a1-3)[Gal(b1-4)GlcNAc(b1-2)Man(a1-6)][Gal(b1-4)GlcNAc(b1-4)]Man(b1-4)GlcNAc(b1-4)[Fuc(a1-6)]GlcNAc
# In short: as §1
# [28] = target: Gal(b1-4)GlcNAc(b1-2)Man(a1-3)[Gal(b1-4)GlcNAc(b1-2)Man(a1-6)][GlcNAc(b1-4)]Man(b1-4)GlcNAc(b1-4)[Fuc(a1-6)]GlcNAc
# In short: as §1
# [29] = target: Gal(b1-4)GlcNAc(b1-2)Man(a1-3)[GlcNAc(b1-2)Man(a1-6)]Man(b1-4)GlcNAc(b1-4)GlcNAc
# In short: as §1
# [30] = target: Gal(b1-4)GlcNAc(b1-2)Man(a1-3)[GlcNAc(b1-4)][Gal(b1-4)GlcNAc(b1-2)Man(a1-6)]Man(b1-4)GlcNAc(b1-4)GlcNAc
# In short: as §1
# [31] = target: Gal(b1-4)GlcNAc(b1-2)Man(a1-3)[Man(a1-6)]Man(b1-4)GlcNAc(b1-4)GlcNAc
# In short: as §1
# [32] = target: Gal(b1-4)GlcNAc(b1-2)Man(a1-6)Man(b1-4)GlcNAc(b1-4)GlcNAc
# In short: as §1
binder,measurement,setting,value
B1,glycan array binding signal (z-score),[1],-0.176
same,glycan array binding signal (z-score),[2],0.085
same,glycan array binding signal (z-score),[3],0.228
same,glycan array binding signal (z-score),[4],0.121
same,glycan array binding signal (z-score),[5],-0.321
same,glycan array binding signal (z-score),[6],-0.203
same,glycan array binding signal (z-score),[7],-0.262
same,glycan array binding signal (z-score),[8],-0.173
same,glycan array binding signal (z-score),[9],-0.335
same,glycan array binding signal (z-score),[10],-0.262
same,glycan array binding signal (z-score),Gal(b1-3)GlcNAc6S,0.585
same,glycan array binding signal (z-score),[11],0.41
same,glycan array binding signal (z-score),[12],0.057
same,glycan array binding signal (z-score),[13],-0.347
same,glycan array binding signal (z-score),[14],0.049
same,glycan array binding signal (z-score),[15],-0.958
same,glycan array binding signal (z-score),[16],0.242
same,glycan array binding signal (z-score),[17],-0.642
same,glycan array binding signal (z-score),[18],-0.256
same,glycan array binding signal (z-score),[19],-0.104
same,glycan array binding signal (z-score),[20],0.022
same,glycan array binding signal (z-score),Gal(b1-4)Gal,-0.97
same,glycan array binding signal (z-score),[21],0.199
same,glycan array binding signal (z-score),[22],-1.09
same,glycan array binding signal (z-score),Gal(b1-4)Glc,-0.288
same,glycan array binding signal (z-score),Gal(b1-4)Glc6S,0.676
same,glycan array binding signal (z-score),Gal(b1-4)GlcNAc,-0.221
same,glycan array binding signal (z-score),[23],0.168
same,glycan array binding signal (z-score),Gal(b1-4)GlcNAc(b1-2)Man,-0.298
same,glycan array binding signal (z-score),[24],-0.221
same,glycan array binding signal (z-score),[25],-0.916
same,glycan array binding signal (z-score),[26],0.296
same,glycan array binding signal (z-score),[27],-0.645
same,glycan array binding signal (z-score),[28],-0.311
same,glycan array binding signal (z-score),[29],-0.147
same,glycan array binding signal (z-score),[30],-0.458
same,glycan array binding signal (z-score),[31],0.125
same,glycan array binding signal (z-score),[32],0.479

# An excerpt of these results, as tab-separated lines:
binder	measurement	setting	value
B1	glycan array binding signal (z-score)	[11]	0.41
same	glycan array binding signal (z-score)	[12]	0.057
